Assay results taken from patent US20140154312A1, “ORAL TARGETTED DRUG DELIVERY SYSTEM” (priority 2010, published 2014).
Some of these results come from one statement about several compounds together.

Test system: colonic micro flora (caecal contents of the rat)
Assay: In vitro dissolution (drug release) of natural gum based 5-FU delivery systems in medium containing caecal contents of orally treated rats
Assay type: physicochemical, Wister Albino rats
Conditions: range over both delivery systems; caecal contents of rats fed the labelled treatment; control 83-92%
Experimental: To answer the questions as above, the inventors adopted an innovative experimental approach using a ‘living biological system’ comprising rats. All the experimental procedures were approved by the Institutional Animal Ethics Committee vide Approval Number 954/ac/06/CPCSEA/09/19. The experimental study was conducted on thirty Wister Albino rats. The animals were divided into 6 groups of five each.
The dosages were freshly prepared every day by suspending in milk. They were administered by oral gavage needle for first and subsequent exposure for a duration of five days each, at an interval of 20 days.
2 animals from each group were humanely sacrificed for the collection of caecal contents in sterile petri plates, which was immediately utilized for the dissolution studies. For dissolution studies, compression coated tablets of 5-FU with natural gums and microspheres of 5-FU with natural gums were used. The experiments were carried out in 250 ml beaker immersed in water maintained in the jars of dissolution test apparatus. Initial studies were carried out in 150 ml of 0.1N HCl (pH 1.2) for 2 h. After this, NaOH was added to the dissolution media and the pH was adjusted to 6.8. The volume was made up to 200 ml with phosphate buffer of pH 6.8. The study was continued for 3 hours after which, caecal contents (4% w/v) were added. […]

Question: Which “drug release from natural gum based drug delivery systems (compression coated tablets/microspheres) exposed to caecal contents” value does the source give for `O=c1[nH]cc(F)c(=O)[nH]1` [5-FU powder, 5-Fluorouracil] here?
Answer: The value was 41%-54%.
